Assay results from PMC9041834.

The chains behind the UniProt entries cited, without tags or fusion partners.
UniProt Q17551: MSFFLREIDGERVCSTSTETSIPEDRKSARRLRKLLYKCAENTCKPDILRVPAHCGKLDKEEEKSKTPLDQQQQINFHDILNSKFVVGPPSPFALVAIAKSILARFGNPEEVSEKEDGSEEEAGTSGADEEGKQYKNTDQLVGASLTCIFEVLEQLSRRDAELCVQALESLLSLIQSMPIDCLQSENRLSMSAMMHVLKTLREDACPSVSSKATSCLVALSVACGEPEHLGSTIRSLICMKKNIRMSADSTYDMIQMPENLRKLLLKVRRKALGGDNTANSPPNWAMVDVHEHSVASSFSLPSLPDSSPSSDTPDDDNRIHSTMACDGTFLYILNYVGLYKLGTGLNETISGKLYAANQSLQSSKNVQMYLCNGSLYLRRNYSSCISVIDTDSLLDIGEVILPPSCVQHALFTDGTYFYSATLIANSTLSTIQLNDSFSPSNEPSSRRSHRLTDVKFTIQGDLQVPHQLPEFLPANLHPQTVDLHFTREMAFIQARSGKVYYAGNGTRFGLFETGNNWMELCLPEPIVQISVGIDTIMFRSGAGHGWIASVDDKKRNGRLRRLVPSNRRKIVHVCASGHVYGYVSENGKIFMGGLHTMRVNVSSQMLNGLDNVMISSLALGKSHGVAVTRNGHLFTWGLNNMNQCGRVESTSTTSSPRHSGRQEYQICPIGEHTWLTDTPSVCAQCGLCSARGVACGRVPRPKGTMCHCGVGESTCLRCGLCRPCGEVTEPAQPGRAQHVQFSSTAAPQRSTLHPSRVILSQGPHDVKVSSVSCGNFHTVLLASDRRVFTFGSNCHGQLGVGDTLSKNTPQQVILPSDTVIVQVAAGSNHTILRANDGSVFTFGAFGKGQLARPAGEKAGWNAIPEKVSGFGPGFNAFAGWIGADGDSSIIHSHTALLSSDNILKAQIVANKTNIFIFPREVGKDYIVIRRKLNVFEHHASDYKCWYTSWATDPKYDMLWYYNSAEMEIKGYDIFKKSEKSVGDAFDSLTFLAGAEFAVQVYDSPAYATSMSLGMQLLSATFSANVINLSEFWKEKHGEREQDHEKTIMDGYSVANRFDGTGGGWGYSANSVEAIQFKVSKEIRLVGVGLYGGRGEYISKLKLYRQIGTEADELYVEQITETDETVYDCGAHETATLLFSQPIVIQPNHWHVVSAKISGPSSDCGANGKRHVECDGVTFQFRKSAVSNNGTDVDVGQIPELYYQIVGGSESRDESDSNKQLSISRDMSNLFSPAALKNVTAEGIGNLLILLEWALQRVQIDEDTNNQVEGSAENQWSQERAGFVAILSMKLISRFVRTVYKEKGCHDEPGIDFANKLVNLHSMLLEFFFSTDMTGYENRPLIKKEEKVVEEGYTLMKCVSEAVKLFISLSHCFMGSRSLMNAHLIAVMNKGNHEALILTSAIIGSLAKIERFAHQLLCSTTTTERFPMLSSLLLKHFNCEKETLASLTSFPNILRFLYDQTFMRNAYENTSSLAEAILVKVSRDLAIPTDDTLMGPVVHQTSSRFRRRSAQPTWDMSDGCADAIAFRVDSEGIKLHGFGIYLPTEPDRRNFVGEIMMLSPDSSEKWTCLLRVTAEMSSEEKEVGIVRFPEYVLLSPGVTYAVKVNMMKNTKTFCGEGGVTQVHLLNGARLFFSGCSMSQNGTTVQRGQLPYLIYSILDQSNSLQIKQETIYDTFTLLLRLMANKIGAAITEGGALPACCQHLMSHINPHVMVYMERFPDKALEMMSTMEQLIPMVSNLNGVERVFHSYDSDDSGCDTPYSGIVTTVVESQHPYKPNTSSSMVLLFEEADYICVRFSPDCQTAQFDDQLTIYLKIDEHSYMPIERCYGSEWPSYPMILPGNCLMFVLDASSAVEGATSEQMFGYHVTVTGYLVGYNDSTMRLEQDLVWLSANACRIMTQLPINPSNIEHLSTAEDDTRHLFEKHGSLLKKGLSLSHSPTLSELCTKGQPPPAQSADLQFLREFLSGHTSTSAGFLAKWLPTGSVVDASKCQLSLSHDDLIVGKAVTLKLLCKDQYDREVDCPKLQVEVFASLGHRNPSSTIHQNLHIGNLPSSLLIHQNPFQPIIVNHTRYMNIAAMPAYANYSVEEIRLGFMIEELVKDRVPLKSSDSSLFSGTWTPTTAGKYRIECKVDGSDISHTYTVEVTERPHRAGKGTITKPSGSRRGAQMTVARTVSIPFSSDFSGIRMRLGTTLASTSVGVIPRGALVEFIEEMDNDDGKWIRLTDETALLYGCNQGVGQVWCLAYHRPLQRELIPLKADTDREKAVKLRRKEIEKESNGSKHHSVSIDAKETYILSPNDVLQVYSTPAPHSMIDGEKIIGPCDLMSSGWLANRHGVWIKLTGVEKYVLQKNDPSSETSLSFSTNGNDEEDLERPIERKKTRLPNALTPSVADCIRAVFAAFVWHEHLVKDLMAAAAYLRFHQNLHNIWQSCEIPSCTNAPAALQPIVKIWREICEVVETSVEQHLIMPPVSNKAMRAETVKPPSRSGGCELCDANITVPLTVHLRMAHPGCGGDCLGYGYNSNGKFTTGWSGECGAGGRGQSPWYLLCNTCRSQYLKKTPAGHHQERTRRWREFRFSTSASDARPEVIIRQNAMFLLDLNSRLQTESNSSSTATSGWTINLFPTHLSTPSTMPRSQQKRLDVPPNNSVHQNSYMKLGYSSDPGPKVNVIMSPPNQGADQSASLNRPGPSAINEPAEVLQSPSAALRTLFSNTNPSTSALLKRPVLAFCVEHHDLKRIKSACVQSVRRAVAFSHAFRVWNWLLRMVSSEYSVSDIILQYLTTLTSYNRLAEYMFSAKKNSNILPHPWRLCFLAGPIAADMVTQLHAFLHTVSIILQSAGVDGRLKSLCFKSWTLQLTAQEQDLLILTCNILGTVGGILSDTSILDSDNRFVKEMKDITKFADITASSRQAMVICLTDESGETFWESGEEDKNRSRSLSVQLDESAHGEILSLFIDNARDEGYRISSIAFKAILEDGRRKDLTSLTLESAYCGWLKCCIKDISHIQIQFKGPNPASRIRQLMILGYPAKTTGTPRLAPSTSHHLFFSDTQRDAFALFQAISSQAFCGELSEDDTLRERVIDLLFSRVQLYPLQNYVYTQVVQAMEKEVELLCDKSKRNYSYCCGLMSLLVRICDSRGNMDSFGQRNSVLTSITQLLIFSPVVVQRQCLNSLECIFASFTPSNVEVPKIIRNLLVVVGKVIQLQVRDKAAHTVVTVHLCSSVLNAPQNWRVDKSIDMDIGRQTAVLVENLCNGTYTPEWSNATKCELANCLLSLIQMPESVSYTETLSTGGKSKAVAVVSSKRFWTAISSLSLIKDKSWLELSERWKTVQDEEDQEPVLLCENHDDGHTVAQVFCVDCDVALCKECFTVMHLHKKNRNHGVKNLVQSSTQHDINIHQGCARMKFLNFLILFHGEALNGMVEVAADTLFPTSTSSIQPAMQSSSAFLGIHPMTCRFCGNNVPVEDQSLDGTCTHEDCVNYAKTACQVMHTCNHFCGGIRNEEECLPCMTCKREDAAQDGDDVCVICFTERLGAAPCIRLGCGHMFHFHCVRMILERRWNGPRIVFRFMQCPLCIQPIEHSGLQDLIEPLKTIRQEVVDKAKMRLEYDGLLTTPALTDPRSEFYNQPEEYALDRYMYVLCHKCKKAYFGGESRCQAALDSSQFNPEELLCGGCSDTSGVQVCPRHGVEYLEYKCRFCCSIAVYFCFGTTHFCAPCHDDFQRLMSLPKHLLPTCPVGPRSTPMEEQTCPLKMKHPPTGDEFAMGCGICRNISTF

What was measured:
[1] = molecular target: GS::RPM-1 (wild-type RPM-1 fused to a protein G::Streptavidin binding peptide (GS) affinity tag) (C. elegans) (UniProt Q17551); experiment: affinity purification with mass spectrometry; GS-tagged baits (GS::RPM-1, GS::RPM-1 LD, GS::GFP) from transgenic mixed-stage C. elegans; cryomilled, lysed under varying detergent conditions; whole animal lysate (80 mg total protein) on IgG coupled Dynabeads, 4 h, 4°C; LC-MS/MS; 7 independent experiments
[2] = molecular target: GS::RPM-1 LD (RPM-1 ubiquitin ligase dead substrate trap fused to the GS affinity tag) (C. elegans) (UniProt Q17551); experiment: as above

B2: RAE-1 (protein, UniProt Q93454 1-373)
chain: MFGSSGFGNKSMFGGSNISTSTTTPAANTTQNDDFLVDGAPEDTIQVIKFSPTPQDKPMLACGSWDGTIRVWMFNDANTFEGKAQQNIPAPILDIAWIEDSSKIFIACADKEARLWDLASNQVAVVGTHDGPVKTCHWINGNNYQCLMTGSFDKTLRFWDMKNLPNQTQMAQIQLPERVYAADVLYPMAVVALANKHIKVYNLENGPTEVKDIESQLKFQIRCISIFKDKSNQNPAGFALGSIEGRVAVQYVDVANPKDNFTFKCHRSAELVNGFQEIYAVNDICFHPQHGTLVTIGSDGRYSMWDKDARTKLKTSEPHPMPLTCCDVHSSGAFLVYALGYDWSRGHEGNTQPGSKIVIHKCIEDMKPRPTKK
binding [1]: binds
binding [2]: binds

B4: UNC-51(ULK1) (enzyme, UniProt Q23023 1-856)
chain: MEQFDGFEYSKRDLLGHGAFAIVYRGRYVDRTDVPVAIKAIAKKNISKSKNLLTKEIKILKELSSLKHENLVGLLKCTETPTHVYLVMEFCNGGDLADYLQQKTTLNEDTIQHFVVQIAHALEAINKKGIVHRDLKPQNILLCNNSRTQNPHFTDIVIKLADFGFARFLNDGVMAATLCGSPMYMAPEVIMSMQYDAKADLWSIGTILFQCLTGKAPFVAQTPPQLKAYYEKTRELRPNIPEWCSPNLRDLLLRLLKRNAKDRISFEDFFNHPFLTSPLLPSPSKRILESARSPLLANRRIITPQSSLPVPKRAGSTKLDSPTPVRRIGESPRVQRRVITPGMPSPVPGAPMQESTDFTFLPPRQESSPVKQVQVHTNVSPSLTTCKPVPVPSQRLTYQKMEERLAAARKTAVPSSSSPTGSAVSAQHQHQHQQQQEPASSPVVQRIERPDQLPRRTTLQDPNAHDIERMTMPNPTFVVCGSSTKPSPNNANRVRRSTITSPADTQDMVAADQMLSNLDPTTTTTTIPKSATTANIQGIPRGARDRSVTSPPQPTIHENEPLDNAKYQQTDVNNSPTAPTEPFIIKNQTTCSTSSTSSSVVEEEEAMSLPFASGSHLAAGFKKTPAEVPMDHGALPPALDQEIVLGEEHKQILAKLRFVAELVDTLIHVAEQKDNPLASAMASRRQLLTTGTSTTNTSSPYRRAEQLVVYVRALHMLSSALLLAQTNVANRVLHPSVAVQQVLNQLNDKYHQCLVRSQELASLGLPGQDPAMAVISAERIMYRHAIELCQAAALDELFGNPQLCSQRYQTAYMMLHTLAEQVNCDQDKTVLTRYKVAVEKRLRILERQGFVAAVNT
binding [1]: binds
binding [2]: binds

B5: PPM-2 (enzyme, UniProt P49596 1-356)
chain: MGQTLSEPVTKKESASCANENYLVGSSCMQGWRVDMEDAHTHLLSLPDDPKCAFFAVYDGHGGSKVSQYSGINLHKKVVAQKEFSEGNMKEAIEKGFLELDQQMRVDEETKDDVSGTTAVVVLIKEGDVYCGNAGDSRAVSSVVGEARPLSFDHKPSHETEARRIIAAGGWVEFNRVNGNLALSRALGDFAFKNCDTKPAEEQIVTAFPDVITDKLTPDHEFIVLACDGIWDVMTNQEVVDFVREKLAEKRDPQSICEELLTRCLAPDCQMGGLGCDNMTVVLVGLLHGQSPDTLFTKCARPAVFTGVNNEDGDQNQIQQDISRVINNFDGEQRVNAANQEEEEDDNEPAPANFQV
binding [1]: binds
binding [2]: binds

Second part, the binder after the results:

binding [1]: binds
binding [2]: binds
B1: GLO-4 (protein, UniProt Q5DX34 1-1386)
chain: MFFKRSTNSRKTSANSSSDTSTSSESLLLPLLNNTKAGARSQKGSVHRQSGKKARRKMMENPYVCSLELDELSADDSIIDYSVFSDDSFLLILLLTSKGDVQAYLETSRDTKPRKNVVNIKTACSLNVSPVTVCIGSQAAFAIFGLADGNLLVTPIRLLIDVTWGGSSWATTTVIDLSLPTVDPCLATPTCTKCFVSNFPPCTMAVVANKAGNILLVDLHLRKCVSELKAPQSLHQIDILLDENSIELLVTGFTGAQWIIPIERSGKGFREVLTTCVPSDLTVLEPATMQFFAADSCGVVALDTTESIVEVYNTFHSLAHSSKRTFKVPPETWMVHAGDNMLFTVSNDNEIRSALHFGFMSSRLEYTLVRTSTNWRPLGIVAMPSRPHKLAGIFVVNERGLVRVEQSTALNLTKIASEFFFRLSPLQLNSKSVAQVANACRIDTAEFQSALIPNLLSTRKNRQLTNKELSQIYSIAKAINLSMSDLLKAFENESIGEQLLPEVLNTIQTNPAKHDNLMQRVVEMFVKRSLSAEGNMDKIREYDAELSNFLARHEHLHKGSVDCAKAGMWKCTQTLVRRDVHETKSIDTSTEVLLYIIKNRLQIWNEANSTDRLQIMSLVCHLDWSKLADADGARVCAILSAWQRDISLPSYHEMCLRIAITNSDRFPRPCQILSLVSSIHILSEKKISNHANLPNFLPLAGGNNCGATITEDDRLMIWGNFTNAQQRMEMPQMNAKSKRSDSVTNGAPTLPPPAPKPEQHLPRVLEYPGGRPRAIACGAEHILVLSSSGQLSAWGGNRFGQCGVGHSFRIANLHQVDGDWPAIEKIACGQFHSAFICSDGSLWTFGWGVWGQLGHGGRNNSNQLVPTRVNGLICKVTQIACGRAHTVVLTDTGRVLVCGSGSYGQMGVDDDIKKVFAFTPLPLGPLRVRDIATHYYHSICITEDNRVFEWGRNPQELKMRMFVMKKIRSAQLKNTEDPSSPSPSTNGSTPRVNLNLPAEIPREDLGLREVKHFLDGNIVSVACGLSHSALITSEGTLYTWGKGLDYQLGHGNKNERMEPHQVFEPNGAKWVNVSLGNNHTIASTDDGSVFAWGKNDFGQCGVLTKKNGNSADVTKKFFFQARDGRRFMPNVDESQFVQKPGLIPDVRVRNLNEDGNEGVDKEEIVDRLKASDVNVVQAVSKHLYSPIEGKCNGSIIEDEPRNGKIQKQNKYDGEDGPLCTTTALVHLIAGDVKRAIRMIEWLKTDSSTCEKSLMVLSSLVWEVMANHEDVQSREALSAAFRHVPMSDSMRKGKQIAQLWPAVWNDERVQSSLSIDEKIAMLDGFTSASKPVSCPTIPSSSLEVSSKIRVYAQCAHAEPAAVGSPPECSTCLDEWTEKVRHTLGTQL

binding [1]: binds
binding [2]: binds
B3: FSN-1 F-box protein (protein, UniProt Q18223 1-332)
chain: MAENDGETIVPDEQCNLTASTPMKSSGLEQVESPKERKTSMVECDDEGNPSSGTPDESPKQLTPHSIPPRRRRSPRRPEVSASRLPLKVLNQIFQYLPLKDLRSAMLTCHSWNNALSMEDSDIWQYLLGKKLPEAAVSDPFLLAELGSAKKKLRAWYFAWNTSDISRNNYIRTNGFTVHRQPVAQSTDGVRGKRGISKGVHAFDITWDGPLGTVAVVGIATKHAALHCVGYVALLGSDDQSWGWNLVDNVLMHNGAQLGVYPKMNNPPKYEVGDKIRLIIDCDTHVAYFERNSEFLGIAFNHIPPLRLYPAVCAVYGNTEVTMVYVGSPQMG

Results are given in words; binding and its absence hold for the method and conditions named. In cells and extracts the contact can be indirect. These calls come from enrichment with a bait or labelling near it, and not all partners need be listed. One block for each binder: values may come before it.
